Source: publication PMC7904762

Protein sequences, listed by entry. Tags and fused reporters are not part of them. Lines headed by an entry give the natural chain unless they say otherwise; changes in a name come on top.
UniProt Q6WKZ4: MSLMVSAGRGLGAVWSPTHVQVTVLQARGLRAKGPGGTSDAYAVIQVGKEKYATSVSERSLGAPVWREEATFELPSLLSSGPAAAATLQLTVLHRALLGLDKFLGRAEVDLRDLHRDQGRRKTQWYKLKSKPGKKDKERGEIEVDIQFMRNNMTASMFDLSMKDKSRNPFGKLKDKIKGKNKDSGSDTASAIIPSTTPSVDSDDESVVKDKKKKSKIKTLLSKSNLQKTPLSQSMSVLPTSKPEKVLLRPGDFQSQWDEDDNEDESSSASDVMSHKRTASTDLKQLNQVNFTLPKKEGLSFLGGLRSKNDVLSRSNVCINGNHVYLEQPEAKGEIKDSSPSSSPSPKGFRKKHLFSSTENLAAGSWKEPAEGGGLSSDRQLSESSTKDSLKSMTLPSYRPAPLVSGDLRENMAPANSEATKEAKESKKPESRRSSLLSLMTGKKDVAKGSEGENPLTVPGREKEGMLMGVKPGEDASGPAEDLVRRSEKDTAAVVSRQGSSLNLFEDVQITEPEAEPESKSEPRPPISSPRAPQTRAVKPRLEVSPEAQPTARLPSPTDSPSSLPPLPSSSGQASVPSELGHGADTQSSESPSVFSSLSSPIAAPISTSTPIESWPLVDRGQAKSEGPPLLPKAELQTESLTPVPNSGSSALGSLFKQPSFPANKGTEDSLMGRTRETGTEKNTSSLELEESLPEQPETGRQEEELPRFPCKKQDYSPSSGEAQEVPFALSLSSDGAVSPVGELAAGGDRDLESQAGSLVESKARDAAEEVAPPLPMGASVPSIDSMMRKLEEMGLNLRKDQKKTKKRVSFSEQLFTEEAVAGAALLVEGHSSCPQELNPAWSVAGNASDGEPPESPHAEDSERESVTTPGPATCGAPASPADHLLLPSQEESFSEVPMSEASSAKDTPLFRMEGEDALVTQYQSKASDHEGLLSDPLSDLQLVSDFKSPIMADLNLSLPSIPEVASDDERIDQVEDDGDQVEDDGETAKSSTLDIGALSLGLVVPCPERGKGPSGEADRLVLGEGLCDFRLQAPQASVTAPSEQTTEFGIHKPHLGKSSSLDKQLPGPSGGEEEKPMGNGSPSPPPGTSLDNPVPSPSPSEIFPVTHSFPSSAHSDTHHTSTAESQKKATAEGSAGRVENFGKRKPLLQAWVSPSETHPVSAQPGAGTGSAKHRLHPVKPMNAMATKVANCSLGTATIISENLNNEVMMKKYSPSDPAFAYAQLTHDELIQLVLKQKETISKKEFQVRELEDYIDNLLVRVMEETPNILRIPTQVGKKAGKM
UniProt P08183: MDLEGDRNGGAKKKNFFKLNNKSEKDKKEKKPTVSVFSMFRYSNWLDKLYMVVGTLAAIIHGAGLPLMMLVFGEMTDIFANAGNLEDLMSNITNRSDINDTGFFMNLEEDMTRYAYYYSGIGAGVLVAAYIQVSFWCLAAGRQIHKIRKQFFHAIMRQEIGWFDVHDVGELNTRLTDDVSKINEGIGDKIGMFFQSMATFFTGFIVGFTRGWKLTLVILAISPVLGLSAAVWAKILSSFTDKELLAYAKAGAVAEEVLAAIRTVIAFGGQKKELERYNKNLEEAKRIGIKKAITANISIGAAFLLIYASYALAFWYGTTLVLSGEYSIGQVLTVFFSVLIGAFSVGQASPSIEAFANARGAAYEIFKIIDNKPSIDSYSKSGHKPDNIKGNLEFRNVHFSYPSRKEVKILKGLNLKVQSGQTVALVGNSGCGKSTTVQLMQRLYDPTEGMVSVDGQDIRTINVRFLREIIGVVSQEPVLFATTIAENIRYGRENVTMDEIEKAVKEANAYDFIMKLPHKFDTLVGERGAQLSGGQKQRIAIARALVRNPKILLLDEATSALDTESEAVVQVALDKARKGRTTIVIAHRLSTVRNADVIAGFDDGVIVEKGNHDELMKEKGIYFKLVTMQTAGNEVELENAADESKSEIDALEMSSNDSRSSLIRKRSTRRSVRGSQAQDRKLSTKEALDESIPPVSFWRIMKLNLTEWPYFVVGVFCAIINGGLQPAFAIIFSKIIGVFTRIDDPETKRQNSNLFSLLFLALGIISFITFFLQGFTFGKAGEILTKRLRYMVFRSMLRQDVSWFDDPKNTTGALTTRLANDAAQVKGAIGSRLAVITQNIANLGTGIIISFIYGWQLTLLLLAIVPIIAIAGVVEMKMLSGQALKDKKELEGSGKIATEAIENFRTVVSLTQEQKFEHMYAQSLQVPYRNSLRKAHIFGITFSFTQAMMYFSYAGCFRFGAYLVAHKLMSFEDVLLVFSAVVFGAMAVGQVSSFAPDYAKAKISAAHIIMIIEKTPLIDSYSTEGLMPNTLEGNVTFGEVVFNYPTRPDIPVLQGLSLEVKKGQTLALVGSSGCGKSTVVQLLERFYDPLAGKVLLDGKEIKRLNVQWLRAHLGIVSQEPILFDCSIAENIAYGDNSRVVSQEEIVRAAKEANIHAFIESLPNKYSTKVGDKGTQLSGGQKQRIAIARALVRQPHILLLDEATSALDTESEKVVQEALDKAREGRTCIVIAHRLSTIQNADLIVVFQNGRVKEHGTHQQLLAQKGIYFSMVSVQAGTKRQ

Target: RCP (bait of the mass spectrometry proteomic screen in H1299 cells) (UniProt Q6WKZ4)
Experiment: affinity purification with mass spectrometry; mass spectrometry proteomic screen for RCP interaction partners in H1299 cells (mutant p53 R273H and empty vector); performed previously (ref. 21)

binding: binds
Substance: P-glycoprotein (from UniProt P08183 1-1280)

No constants are given. Whether binding was seen depends on the method and setting. Binding seen in cells or lysates may run through a third protein. Here binding means that the protein was enriched with, or labelled near, the bait; the list need not be complete.
